Experimental data as given in PubChem BioAssay AID2718 (Broad Institute, 2010).
In all, about 320,000 compounds went through this assay and about 480 (0.15%) were called active. Inconclusive results, whose numbers are uncertain, are shown with a selection of clear calls. Cut-off read from the data, not from the text of the source: active = inhibition above about 26% (passing the limit was not always enough); inconclusive = no clear call, values can overlap the other calls.

The chains behind the UniProt entries cited, without tags or fusion partners. Where a name states a change or a piece, a line headed by the entry shows the natural chain unless it says otherwise.
UniProt O15379: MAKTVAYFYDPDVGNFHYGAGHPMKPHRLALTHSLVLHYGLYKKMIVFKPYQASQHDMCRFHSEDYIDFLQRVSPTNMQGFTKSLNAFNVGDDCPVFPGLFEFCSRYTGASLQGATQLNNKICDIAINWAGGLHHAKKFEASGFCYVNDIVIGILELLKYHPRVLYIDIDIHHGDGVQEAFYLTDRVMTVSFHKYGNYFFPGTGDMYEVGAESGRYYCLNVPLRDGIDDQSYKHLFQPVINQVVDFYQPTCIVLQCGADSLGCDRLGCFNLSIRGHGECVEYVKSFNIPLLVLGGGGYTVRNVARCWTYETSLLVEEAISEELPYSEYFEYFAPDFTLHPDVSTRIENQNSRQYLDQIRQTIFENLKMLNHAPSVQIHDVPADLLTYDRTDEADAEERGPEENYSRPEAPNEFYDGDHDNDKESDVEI

The compounds below were run against Histone deacetylase 3 (Homo sapiens) (UniProt O15379) (assay: HDAC3 deacetylase inhibitors, primary screen, biochemical, fluorescence, cell-free homogeneous (AID 2718)). Conditions: recombinant HDAC3, fluorogenic peptide/trypsin coupled, at 8.3 µM, active compounds read high.
In the case of `COc1ccccc1NC(=O)c1sc2ncn(Cc3ccccc3C)c(=O)c2c1C`, the inhibition is reported as inactive: 1.37%. In the case of `COc1ccc(COC(=O)Nc2cn(C)nc2C(F)(F)F)cc1`, the inhibition is reported as inconclusive: 15.2%. With `CCCc1cc(=O)[nH]c(SCC(=O)CSc2nc(CCC)cc(=O)[nH]2)n1` the inhibition was active: 45.2%. With `COc1cc(OC)cc(-c2cc3ccccc3c(=O)o2)c1` the inhibition was inactive: -7.34%. For `COc1ccc(NC(=O)c2cccc3c2C(=O)N(CC2CCCO2)C3)cc1OC` (centres undefined), the inhibition was inconclusive: 20.6%. For `CC(C)N(C)S(=O)(=O)c1ccc(Cl)c(C(=O)O)c1`, the inhibition was inactive: -4.15%. With `O=C(N/N=C/c1cc2c(cc1Br)OCO2)c1ccccn1` the inhibition was inconclusive: 15.1%. For `COC(=O)C1=CN(Cc2ccc(OC)c(OC)c2)C=C(C(=O)OC)C1c1ccccc1F`, the inhibition was inactive: -10.1%. With `c1ccc2cc(C3CCCCC3)ncc2c1` the inhibition was inconclusive: 13.7%. `Cc1ccc(-n2c(Cc3cccs3)nnc2SCC(=O)Nc2ccc(F)c(F)c2)cc1` was tested, and the inhibition was inconclusive: 30%. With `Cc1ccccc1COc1ccc(/C(O)=C2/C(=O)C(=O)N(CCCn3ccnc3)C2c2ccco2)cc1` (centres undefined) the inhibition was inactive: 1.77%. For `CC1=C(C(=O)OCc2ccccc2)C(c2ccc(C)o2)C2=C(CCCC2=O)N1` (centres undefined), the inhibition was inconclusive: 16.6%. For `O=C(NCc1ccc(OC(F)(F)F)cc1)C1CC2Cn3c(nc4ccccc43)C2N1c1ccccc1` (centres undefined), the inhibition was inactive: 2.21%. In the case of `CCc1ccc(N(C(C)=O)c2nc(CCl)cs2)cc1`, the inhibition is reported as inconclusive: 16.5%. With `CCn1c(SCC(=O)OCc2ccccc2)nc2c1c(=O)n(C)c(=O)n2C` the inhibition was active: 31.8%. With `Cc1ccc(/C=C2\C(=O)ON=C2c2ccccc2)o1` the inhibition was inconclusive: 25.5%. With `Cc1ccc(S(=O)(=O)N(C)CC(=O)N2CCOCC2)cc1` the inhibition was inactive: -11.2%. In the case of `CC(C)(C)c1ccc(C(=O)Nc2cnccn2)cc1`, the inhibition is reported as inconclusive: 20.6%. With `Cc1ccc(C(=O)Oc2oc(-c3ccco3)nc2C=Nc2ccc(Cl)cc2)cc1` the inhibition was inconclusive: 25.2%. For `Cc1cc(C)nc(NC(=O)c2cccc([N+](=O)[O-])c2C)n1`, the inhibition was inconclusive: 15.9%. In the case of `CN1C(=O)C(C)(C)c2cc(S(=O)(=O)NCC3CCC(C(=O)NC4CCCCC4)CC3)ccc21` (centres undefined), the inhibition is reported as inconclusive: 20.1%. With `CCS(=O)(=O)c1nc(S(=O)(=O)c2ccc(C)cc2)c(N2CCCC(C)C2)s1` (centres undefined) the inhibition was inconclusive: 18.6%. With `CC(=O)Nc1ccc(NC(=O)C2CCCN2S(=O)(=O)c2cccc(C(F)(F)F)c2)cc1` (centres undefined) the inhibition was inconclusive: 15.3%. `COc1ccc(NC(=O)C2(S(=O)(=O)c3ccc(C)cc3)CC2)cc1OC` was tested, and the inhibition was inactive: -2%. For `NC(=O)c1cc(S(=O)(=O)NCCc2ccc(S(N)(=O)=O)cc2)cs1`, the inhibition was inconclusive: 13.4%. `COc1ccc(-c2c[n+](CC(=O)N3c4ccccc4Sc4ccccc43)c3n2CCC3)cc1` was tested, and the inhibition was inactive: 2.3%. `Cc1cccc(Oc2cc(NC(=O)Cn3cnc([N+](=O)[O-])n3)cc([N+](=O)[O-])c2)c1` was tested, and the inhibition was inconclusive: 14.1%. With `O=C(NC1CCCCC1)C1CCCN1C(=O)Nc1ccccc1` (centres undefined) the inhibition was inconclusive: 14.3%. In the case of `Cc1ccc([C@H]2C(C(=O)O)=CC[C@@H](c3ccc(Cl)cc3)N2S(=O)(=O)c2ccccc2C)cc1`, the inhibition is reported as inactive: 5.3%. In the case of `O=[N+]([O-])c1cc2c(cc1[N+](=O)[O-])OCCOCCOCCOCCO2`, the inhibition is reported as inconclusive: 8.17%. For `CCN(CC)C(=O)C(=O)Nc1cc(C(F)(F)F)ccc1Cl`, the inhibition was inactive: 4.41%. With `Fc1ccccc1-c1n[nH]c(=S)n1C1CC1` the inhibition was inconclusive: 25.4%. For `CCc1c(C2(O)CCCCC2)[nH]c2cc(C(F)(F)F)ccc12`, the inhibition was inconclusive: 23.8%. In the case of `CC(=O)Nc1sc2c(c1C(c1ccc(F)cc1)N1CCOCC1)CCCC2` (centres undefined), the inhibition is reported as inactive: 2.47%. For `CC1(C)CC(=O)C2=C(C1)OC(N)=C(C#N)C2c1ccsc1` (centres undefined), the inhibition was inconclusive: 39%. With `O=C(CCl)Nc1ccccc1Sc1ccccc1` the inhibition was inactive: 9.01%. In the case of `COc1ccccc1CC(=O)Nc1c[nH]c(=O)[nH]c1=O`, the inhibition is reported as inconclusive: 25.4%. `CCN(c1ccccc1)S(=O)(=O)c1cc(C(=O)NCC(c2ccco2)N2CCCCC2)ccc1C` (centres undefined) was tested, and the inhibition was inconclusive: 19.7%. For `COc1ccc(-n2c(O)c(/C=N/NS(=O)(=O)c3cccc([N+](=O)[O-])c3)c3ccccc3c2=O)cc1OC`, the inhibition was inconclusive: 14.6%. `CC(C)(C)NC(=O)/C(=C\c1ccccc1F)NC(=O)c1ccc([N+](=O)[O-])cc1` was tested, and the inhibition was inconclusive: 11%. In the case of `Cc1ccc(-c2[nH]n3c(=O)c4c(nc3c2C)CCCC4)cc1`, the inhibition is reported as inconclusive: 27.2%. With `Cc1cccc(C)c1N(CC(=O)Nc1cc(Cl)ccc1Oc1ccccc1)S(C)(=O)=O` the inhibition was inconclusive: 20.9%. In the case of `CC1Cc2nc(SCC(=O)NCc3ccco3)n(-c3ccccc3)c(=O)c2S1` (centres undefined), the inhibition is reported as inconclusive: 12.9%. `CC(=O)Nc1ccccc1C(=O)C(=O)Nc1cccc(C(=O)NCc2ccccc2)c1` was tested, and the inhibition was inconclusive: 23.5%. For `O=c1oc(-c2ccccc2NS(=O)(=O)c2ccc(F)cc2)nc2ccccc12`, the inhibition was inconclusive: 26.8%. For `CCCSc1ccc([C@@H]2[C@@H]3C(=O)N(CC)C(=O)[C@@H]3[C@]3(C(=O)OC)CCCCN23)cc1`, the inhibition was inconclusive: 32%. For `Cc1ccc(NC(=O)c2c(C)nc3sc(C(=O)NC4CCCC4)c(N)c3c2-c2ccco2)c(C)c1`, the inhibition was inactive: -3.72%. For `C/C(=N\NC(=O)c1ccc(N)cc1)C1CC1`, the inhibition was inactive: 0.794%. For `CCOC(=O)N1CCN(Cc2nc3cc(NC(=O)CC(C)C)ccc3n2CC)CC1`, the inhibition was inactive: -2.23%. In the case of `CC1CCc2c(sc3nc(CN4CCOCC4)nc(NS(=O)(=O)c4cccc([N+](=O)[O-])c4)c23)C1` (centres undefined), the inhibition is reported as inconclusive: 8.72%. In the case of `CCOc1ccc(NCc2cccn2-c2nnc(N3CCC(C(=O)NCCCN4CCCCC4C)CC3)s2)cc1` (centres undefined), the inhibition is reported as inactive: 5.56%. In the case of `Cc1cccc(-n2c(C)nc3cc(C(=O)NCC4CCCO4)ccc32)c1` (centres undefined), the inhibition is reported as inconclusive: 11.5%. With `COc1ccc(C(=O)Oc2c(CN3CCOCC3)cc(Cl)c3cccnc23)cc1` the inhibition was inactive: 11.8%. In the case of `C#CCOCCOCCOCCNc1nc(N2CCN(C(=O)[C@H](Cc3ccc(O)cc3)n3cc([C@@H](N)C(C)CC)nn3)CC2)nc(N2CCN(C(=O)[C@H](Cc3cc4ccccc4[nH]3)n3cc([C@@H](N)C(C)CC)nn3)CC2)n1` (some centres undefined), the inhibition is reported as inconclusive: 31%.
